For this test, the target named is p97 segregase (X. laevis (endogenous in egg extract)) (UniProt P23787). Kind of test: co-IP; p97, Cul2 or Ubxn7 immunoprecipitated from late S-phase chromatin of egg extract treated with p97i (NMS873); complexes released by Benzonase; ANIB100 buffer, 4 °C; Western blotting. In general terms: In western blotting, separated proteins are transferred to a membrane and probed.

Chains of the proteins cited; added tags and fusions are not shown.
UniProt P23787: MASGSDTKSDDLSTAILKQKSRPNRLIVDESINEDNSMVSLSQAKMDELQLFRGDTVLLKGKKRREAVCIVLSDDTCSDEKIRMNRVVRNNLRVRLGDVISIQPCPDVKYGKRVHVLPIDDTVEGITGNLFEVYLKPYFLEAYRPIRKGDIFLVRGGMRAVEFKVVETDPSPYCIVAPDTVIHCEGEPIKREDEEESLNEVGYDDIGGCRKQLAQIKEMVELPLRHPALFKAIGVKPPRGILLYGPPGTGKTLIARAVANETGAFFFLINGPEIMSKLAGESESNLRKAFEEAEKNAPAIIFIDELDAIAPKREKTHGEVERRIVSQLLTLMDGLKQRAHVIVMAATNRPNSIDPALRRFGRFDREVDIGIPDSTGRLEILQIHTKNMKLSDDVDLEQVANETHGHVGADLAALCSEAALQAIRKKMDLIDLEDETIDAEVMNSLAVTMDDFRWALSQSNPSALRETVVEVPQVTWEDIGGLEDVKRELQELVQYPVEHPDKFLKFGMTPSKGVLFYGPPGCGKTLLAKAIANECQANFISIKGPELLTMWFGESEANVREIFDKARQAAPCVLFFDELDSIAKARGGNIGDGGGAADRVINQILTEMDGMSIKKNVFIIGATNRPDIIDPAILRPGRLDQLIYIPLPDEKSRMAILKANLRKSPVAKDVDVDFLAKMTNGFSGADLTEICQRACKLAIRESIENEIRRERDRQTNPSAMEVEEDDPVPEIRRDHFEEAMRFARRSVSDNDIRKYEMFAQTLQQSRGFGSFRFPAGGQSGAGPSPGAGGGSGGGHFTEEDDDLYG
UniProt Q9YHZ6: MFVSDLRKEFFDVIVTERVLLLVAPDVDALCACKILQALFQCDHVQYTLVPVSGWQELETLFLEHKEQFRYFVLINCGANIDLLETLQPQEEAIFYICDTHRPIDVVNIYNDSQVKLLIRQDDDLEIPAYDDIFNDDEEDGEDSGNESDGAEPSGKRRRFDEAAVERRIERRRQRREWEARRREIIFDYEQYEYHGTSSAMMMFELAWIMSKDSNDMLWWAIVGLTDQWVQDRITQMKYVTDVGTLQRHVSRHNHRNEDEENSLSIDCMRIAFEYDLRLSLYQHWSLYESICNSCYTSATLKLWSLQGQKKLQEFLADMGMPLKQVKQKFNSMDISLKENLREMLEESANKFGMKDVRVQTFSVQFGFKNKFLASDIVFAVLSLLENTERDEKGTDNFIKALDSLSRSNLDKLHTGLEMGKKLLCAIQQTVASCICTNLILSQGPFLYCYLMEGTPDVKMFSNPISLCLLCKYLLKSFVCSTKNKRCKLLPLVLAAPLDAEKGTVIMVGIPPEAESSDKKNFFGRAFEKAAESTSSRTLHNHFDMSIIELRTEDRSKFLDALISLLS

Drawing on article PMC9358472, this text covers binding for one substance.

These are yes or no findings as the source states them, for the method shown. In cells and extracts the contact can be indirect. Some entries that bind do so weakly or less than the wild type.

Cdc45 (from UniProt Q9YHZ6 1-567): the binding result is given as “binds weakly”.
